Data: patent US20090099167A1, “Organic compounds” (Novartis Institutes for Biomedical Research, priority 2004, published 2009)
The structures given here were assigned with low confidence; some may be wrong.

Sequences of proteins named here, by UniProt entry; tags and fusion partners are left off. Residues count along the entry.
UniProt P35968, 20-1356 limits assumed: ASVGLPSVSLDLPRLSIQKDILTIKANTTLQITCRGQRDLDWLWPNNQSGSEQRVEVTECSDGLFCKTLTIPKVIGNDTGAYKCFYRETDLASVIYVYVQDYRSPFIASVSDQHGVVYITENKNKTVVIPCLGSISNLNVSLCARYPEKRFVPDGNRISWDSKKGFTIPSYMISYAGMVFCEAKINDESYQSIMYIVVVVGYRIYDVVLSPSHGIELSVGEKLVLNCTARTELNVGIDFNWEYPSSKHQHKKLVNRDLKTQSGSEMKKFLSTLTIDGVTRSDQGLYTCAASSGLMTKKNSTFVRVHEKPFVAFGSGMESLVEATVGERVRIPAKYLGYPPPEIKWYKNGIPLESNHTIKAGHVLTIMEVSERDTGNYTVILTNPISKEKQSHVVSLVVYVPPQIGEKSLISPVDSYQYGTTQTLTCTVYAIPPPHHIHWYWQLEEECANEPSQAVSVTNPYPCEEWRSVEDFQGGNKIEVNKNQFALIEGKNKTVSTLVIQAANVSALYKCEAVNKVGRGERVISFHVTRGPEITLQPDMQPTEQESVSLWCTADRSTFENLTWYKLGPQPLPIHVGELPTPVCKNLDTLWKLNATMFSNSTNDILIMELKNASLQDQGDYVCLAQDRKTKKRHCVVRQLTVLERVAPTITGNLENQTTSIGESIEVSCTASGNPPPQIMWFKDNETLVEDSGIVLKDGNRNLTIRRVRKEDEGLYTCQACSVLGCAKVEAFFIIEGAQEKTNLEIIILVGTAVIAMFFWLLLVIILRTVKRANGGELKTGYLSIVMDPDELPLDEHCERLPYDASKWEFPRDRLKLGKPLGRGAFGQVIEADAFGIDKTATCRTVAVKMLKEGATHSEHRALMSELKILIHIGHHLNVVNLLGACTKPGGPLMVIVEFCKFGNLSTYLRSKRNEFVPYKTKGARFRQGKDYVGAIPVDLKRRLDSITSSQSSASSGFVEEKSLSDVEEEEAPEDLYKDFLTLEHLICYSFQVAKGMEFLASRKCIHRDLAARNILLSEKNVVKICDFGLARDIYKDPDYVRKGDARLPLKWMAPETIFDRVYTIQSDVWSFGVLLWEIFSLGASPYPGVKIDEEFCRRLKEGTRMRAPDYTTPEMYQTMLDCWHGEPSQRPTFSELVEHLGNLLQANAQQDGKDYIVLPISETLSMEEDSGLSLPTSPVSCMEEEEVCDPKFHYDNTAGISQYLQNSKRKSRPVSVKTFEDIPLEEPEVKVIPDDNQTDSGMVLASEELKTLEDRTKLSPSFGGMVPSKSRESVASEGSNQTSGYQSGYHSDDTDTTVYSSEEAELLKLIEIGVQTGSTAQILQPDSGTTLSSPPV

Target: human VEGF-R2 receptor (KDR) (Homo sapiens, UniProt P35968)
Test: VEGF-induced KDR autophosphorylation in transfected CHO cells, sandwich ELISA
Conditions: read-out: KDR, activity (IC50 for kinase inhibition); Table 4

## Cc1nn2c(N)c(-c3cccc(O)c3)cnc2c1-c1ccc(N2CCN(C)CC2)cc1 [Example 61a, 3-{7-Amino-2-methyl-3-[4-(4-methyl-piperazin-1-yl)phenyl]-pyrazolo[1,5-a]pyrimidin-6-yl}-phenol]
  IC50: < 10 µM
